From patent US10801054B2 (priority 2013, dated 2020)
Values joined by “and” are separate entries in the source; they are usually repeats but may differ in a detail not shown here. Equal values may be shown once.

Tested on: Phage litmus

## CO [MeOH, methanol]
  Color change of Phage litmus bands upon exposure: immediately changed color
  Red-green-blue (RGB) color differences G3: 3.55 and 4.45 and 4.18
  Red-green-blue (RGB) color differences G4: 2.49 and 3.38 and 3.00
  Red-green-blue (RGB) color differences R1: 1.58 and 2.13 and 1.88
  Red-green-blue (RGB) color differences R3: 2.90 and 3.74 and 3.27
  Red-green-blue (RGB) color differences R4: 1.42 and 1.65 and 1.73
  Time in which all color matrices of the Phage litmus responded: 30 s
